According to patent publication US20260272932A1, “METHOD OF TREATING EARLY BREAST CANCER WITH RIBOCICLIB IN COMBINATION WITH AN AROMATASE INHIBITOR” (Novartis AG, priority 2023, published 2026):
Entries after “also recorded” stand apart in the source; their conditions may differ. At least one compound was matched to its structure with a doubt left. Some of these results come from one statement about several compounds together.

Legend:
[1] = tested on: patients having HR+ HER2− early breast cancer and residual invasive disease after neoadjuvant chemotherapy; conditions: cited from earlier work
[2] = tested on: patients with HR+ HER2− early-stage breast cancer; conditions: cited from earlier work
[3] = Ribociclib metabolism and excretion in humans (CLEE011A2102); format: in vivo, human
Source text: Ribociclib is mainly eliminated via hepatic clearance, with renal clearance playing a lesser role in humans. […] Ribociclib accounted for approximately 23% of the total radioactivity in plasma (CLEE011A2102). […] The clinical activity (pharmacological and safety) following ribociclib treatment is primarily due to parent drug, with a negligible contribution from circulating metabolites.

Row | SMILES | invasive disease free survival vs placebo added to ET (PENELOPE-B) [1] | outcome of PALLAS trial (DFS vs endocrine therapy alone) [2] | share of total radioactivity in plasma [3]
1 | CC(=O)c1c(C)c2cnc(Nc3ccc(N4CCNCC4)cn3)nc2n(C2CCCC2)c1=O [palbociclib] | did not improve invasive disease free survival | did not improve DFS; also recorded: negative outcome | –
2 | CNC(=O)c1cc2cnc(Nc3ccc(N4CCNCC4)cn3)nc2n1C1CCCC1 [LEQ803] | – | – | < 10%
3 | CN(C)C(=O)c1cc2cnc(Nc3ccc(N4CCN(O)CC4)cn3)nc2n1C1CCCC1 [CC1284] | – | – | < 10%
